Where “and” joins values, the source holds several entries; their conditions need not be identical. Identical values can stand only once. This continues a long series; more values of the same kind are listed elsewhere.
Biological target: T1, SBC2 (Homo sapiens, UniProt O14508)
T1 construct: SOCS2 (amino acids 32–198); His6 (N, cleaved yes); made in house; host or cells: E. coli BL21(DE3)
Assay: Covalent fluorescence polarization (FP) probe displacement assay
Assay type: binding
Excerpt: With the specific covalent modification of Cys111 established, we decided to fully characterize MN551 as a covalent SOCS2 inhibitor. […] (Fig. 2g, h, Supplementary Fig. 9). Due to the covalent nature of the competing inhibitor, a time-dependent reduction in the fraction of protein-bound probe is observed. […] This value illustrates reasonable specificity for a covalent inhibitor, with nonetheless scope for future optimization. In addition to characterizing the kinetic covalency parameters, we have also assessed the stability of the MN551 by monitoring its reactivity (half-life >70 min) with reduced glutathione (GSH) (Supplementary Fig. 10)[35].
To monitor the SBC2-ligand binding kinetics we designed a fluorescein-labeled small-molecule probe - compound 26. The fluorescence polarization (anisotropy) of a threefold serial dilution of 50 µM SBC2 in 10 nM of the probe in 100 mM HEPES pH 7.5, 50 mM NaCl, 0.5 mM TCEP, 2% DMSO was measured to determine the KL (Supplementary Fig. 9A) (BMG Labtech PHERAstar – firmware v1.33). Protein titration and the curves were fitted using GraphPad Prism 9, using one-site fitting models to determine the probe binding constant, KL. Samples were run in triplicate in 384 well plates, using a total volume per well of 16 μL. The bound fraction of the probe is measure using the equation:1 Fb=Af−A/Af−Ab Where,
A time-dependent reduction in probe anisotropy were measured for a 2-fold serial dilution of […] compound MN551 in 10 nM probe +300 μM SBC2. To determine the initial reversible binding affinity, the initial bound fraction of the probe at time = 0, Fbo (the y-intercept in Fb v/s Time plot, Supplementary Fig. 9B) was plotted against MN551 concentration, and the obtained IC50 is then converted to Ki (Supplementary Fig. 9C)[17]. The slope from Fb versus time graph when divided by Fbo gives rate of covalency, kobs. A plot of kobs v/s MN551 concentration using Michaelis–Menten model of GraphPad Prism 9, provides the parameters kinact (maximum potential rate of inactivation) and KI (concentration of MN551 at which kobs = kinact/2) (Supplementary Fig. 9D, E).
The observed first-order rate constant, kobs is related to KI and kinact by the equation:2 kobs=kinactI/KI+I
At [I]«[KI] the above equation is converted to3 […]
The slope from the plot of kobs against concentration of MN551 gives us the covalent efficiency parameter kinact/KI (Supp Fig. 9F)[30],[33].

Protein sequences, listed by entry. Tags and fused reporters are not part of them. Residues count along the entry.
UniProt O14508, 32-198: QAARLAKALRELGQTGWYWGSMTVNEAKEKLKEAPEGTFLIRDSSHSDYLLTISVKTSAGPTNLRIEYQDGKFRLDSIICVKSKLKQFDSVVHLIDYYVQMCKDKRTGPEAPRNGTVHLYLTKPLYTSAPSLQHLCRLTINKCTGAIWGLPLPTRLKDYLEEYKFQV

[1] = MN551 1562.5 nM; Cycle 13 (60 min); n=1
[2] = MN551 1562.5 nM; Cycle 14 (65 min); n=1
[3] = MN551 1562.5 nM; Cycle 15 (70 min); n=1
[4] = MN551 1562.5 nM; Cycle 16 (75 min); n=1
[5] = MN551 3125 nM, Cycle 8 (35 min)
[6] = MN551 3125 nM, Cycle 9 (40 min)
[7] = MN551 3125 nM, Cycle 10 (45 min)
[8] = MN551 3125 nM; Cycle 7 (30 min)
[9] = MN551 3125 nM; Cycle 8 (35 min)
[10] = MN551 3125 nM; Cycle 9 (40 min)
[11] = MN551 3125 nM; Cycle 10 (45 min)
[12] = MN551 3125 nM; Cycle 11 (50 min)
[13] = MN551 3125 nM; Cycle 12 (55 min); n=1
[14] = MN551 3125 nM; Cycle 13 (60 min); n=1
[15] = MN551 3125 nM; Cycle 14 (65 min); n=1
[16] = MN551 3125 nM; Cycle 15 (70 min); n=1
[17] = MN551 3125 nM; Cycle 16 (75 min); n=1
[18] = MN551 3125 nM; Cycle 17 (80 min); n=1
[19] = MN551 6250 nM, Cycle 8 (35 min)
[20] = MN551 6250 nM, Cycle 9 (40 min)
[21] = MN551 6250 nM, Cycle 10 (45 min)
[22] = MN551 6250 nM; Cycle 7 (30 min)
[23] = MN551 6250 nM; Cycle 8 (35 min)
[24] = MN551 6250 nM; Cycle 9 (40 min)
[25] = MN551 6250 nM; Cycle 10 (45 min)

## O=C(CCl)Nc1cccc(CNC(=O)[C@H](Cc2ccc(OP(=O)(O)O)cc2)NC(=O)Cc2ccc(F)cc2)c1 [MN551]
[1]
  Anisotropy: 229.8 and 234.4 and 235.2
  Anisotropy based on Raw Data (485): 235.6 and 238.5 and 233.4
[2]
  Anisotropy: 227.1 and 232.1 and 231
  Anisotropy based on Raw Data (485): 234.5 and 232.3 and 232.6
[3]
  Anisotropy: 224.9 and 229.8 and 228.8
  Anisotropy based on Raw Data (485): 229 and 231.4 and 227.1
[4]
  Anisotropy: 221.4 and 228.3 and 226.7
  Anisotropy based on Raw Data (485): 229.6 and 230.2 and 223.6
MN551 1562.5 nM; Cycle 19 (90 min); n=1
  Anisotropy data 485,520,520: 219.9 and 220.1 and 217.3
MN551 1562.5 nM; Cycle 20 (95 min); n=1
  Anisotropy data 485,520,520: 215.4 and 215.6
MN551 3125 nM, Cycle 7 (30 min)
  Fb: 0.5021 and 0.5574 and 0.5274
[5]
  Anisotropy based on Raw Data (485): 230.4 and 225
  Fb: 0.4484 and 0.5236 and 0.4774
[6]
  Anisotropy based on Raw Data (485): 226.8 and 228.4 and 222.7
  Fb: 0.4219 and 0.5154 and 0.4585
[7]
  Anisotropy based on Raw Data (485): 225.8 and 224.5 and 221.4
  Fb: 0.4179 and 0.4825 and 0.4723
MN551 3125 nM, Cycle 13 (60 min), n=1
  Anisotropy: 216 and 213.7 and 213.1
MN551 3125 nM, Cycle 14 (65 min), n=1
  Anisotropy: 213 and 211.5 and 209.7
MN551 3125 nM, Cycle 15 (70 min), n=1
  Anisotropy: 213.3 and 209.1 and 208.1
MN551 3125 nM, Cycle 16 (75 min), n=1
  Anisotropy: 208.5 and 206.2 and 205.8
MN551 3125 nM, Cycle 18 (85 min), n=1
  Anisotropy: 203.4 and 202.2 and 200.4
MN551 3125 nM; Cycle 4 (15 min)
  Fb, fraction bound: 0.6147 and 0.6141 and 0.596
MN551 3125 nM; Cycle 5 (20 min)
  Fb, fraction bound: 0.5816 and 0.6069 and 0.5798
MN551 3125 nM; Cycle 6 (25 min)
  Fb, fraction bound: 0.5809 and 0.577 and 0.5744
[8]
  Anisotropy data 485,520,520: 230 and 231.4 and 233.7
  Fb: 0.552 and 0.5546 and 0.5812
  Fb, fraction bound: 0.5447 and 0.55 and 0.5399
[9]
  Anisotropy: 230.6 and 228.5 and 227.3
  Anisotropy data 485,520,520: 227.5 and 229 and 230.8
  Fb: 0.518 and 0.5256 and 0.5538 and 0.5298 and 0.5153 and 0.5089
[10]
  Anisotropy: 227.6 and 227.3 and 223.5
  Anisotropy data 485,520,520: 224.7 and 225.6 and 228.2
  Fb: 0.5025 and 0.5082 and 0.5371 and 0.4972 and 0.5123 and 0.484
[11]
  Anisotropy: 224.7 and 223.9 and 219.5
  Anisotropy data 485,520,520: 221.1 and 221.8 and 224.3
  Fb: 0.4762 and 0.4792 and 0.5005 and 0.4717 and 0.4943 and 0.4549
[12]
  Anisotropy: 222.7 and 217.5 and 217.2
  Anisotropy based on Raw Data (485): 220.2 and 222.1 and 218.3
MN551 3125 nM; Cycle 11 (50 min); n=1
  Anisotropy: 217.2 and 219.7 and 223.2
[13]
  Anisotropy: 215.6 and 217.4 and 218.7
  Anisotropy based on Raw Data (485): 218 and 219.1 and 214.5
[14]
  Anisotropy: 213.4 and 214.8 and 217.7
  Anisotropy based on Raw Data (485): 215.3 and 215.2 and 214.7
[15]
  Anisotropy: 209.5 and 212.1 and 214
  Anisotropy based on Raw Data (485): 212.6 and 214.6 and 210.4
[16]
  Anisotropy: 209.2 and 209.9 and 211.1
  Anisotropy based on Raw Data (485): 211.1 and 211.4 and 210.8
[17]
  Anisotropy: 206.3 and 204.2 and 209
  Anisotropy based on Raw Data (485): 209.6 and 208 and 203.7
[18]
  Anisotropy: 205.7 and 203.5 and 202.2
  Anisotropy based on Raw Data (485): 204.8 and 205.7 and 202.1
MN551 3125 nM; Cycle 19 (90 min); n=1
  Anisotropy data 485,520,520: 201.9 and 201.4 and 198.7
MN551 3125 nM; Cycle 20 (95 min); n=1
  Anisotropy data 485,520,520: 199.4 and 197.1 and 199.1
MN551 6250 nM, Cycle 7 (30 min)
  Fb: 0.2848 and 0.3538 and 0.3243
[19]
  Anisotropy based on Raw Data (485): 206.7 and 206 and 207.2
  Fb: 0.2464 and 0.3067 and 0.3168
[20]
  Anisotropy based on Raw Data (485): 206.2 and 202.8 and 203.6
  Fb: 0.2508 and 0.2839 and 0.2823
[21]
  Anisotropy based on Raw Data (485): 202.2 and 201.5 and 200.9
  Fb: 0.2241 and 0.2807 and 0.2865
MN551 6250 nM, Cycle 13 (60 min), n=1
  Anisotropy: 193.2 and 192.9 and 193.1
MN551 6250 nM, Cycle 14 (65 min), n=1
  Anisotropy: 191.5 and 189.9 and 189.1
MN551 6250 nM, Cycle 15 (70 min), n=1
  Anisotropy: 190.7 and 187.5 and 188.4
MN551 6250 nM, Cycle 16 (75 min), n=1
  Anisotropy: 186.9 and 186.5 and 187.3
MN551 6250 nM, Cycle 18 (85 min), n=1
  Anisotropy: 184.5 and 183.4 and 184.3
MN551 6250 nM; Cycle 4 (15 min)
  Fb, fraction bound: 0.3977 and 0.4042 and 0.4004
MN551 6250 nM; Cycle 5 (20 min)
  Fb, fraction bound: 0.3488 and 0.3735 and 0.3661
MN551 6250 nM; Cycle 6 (25 min)
  Fb, fraction bound: 0.3491 and 0.3375 and 0.3388
[22]
  Anisotropy data 485,520,520: 215.4 and 210.6 and 212.9
  Fb: 0.4073 and 0.3636 and 0.3814
  Fb, fraction bound: 0.3194 and 0.3227 and 0.3211
[23]
  Anisotropy: 208 and 204.6 and 206.6
  Anisotropy data 485,520,520: 210.3 and 208.4 and 210.7
  Fb: 0.3508 and 0.3373 and 0.3642 and 0.3125 and 0.293 and 0.3146
[24]
  Anisotropy: 202.6 and 200.2 and 201.9
  Anisotropy data 485,520,520: 206.4 and 206 and 206.9
  Fb: 0.32 and 0.3294 and 0.3371 and 0.2613 and 0.2561 and 0.281
[25]
  Anisotropy: 199.5 and 198.5 and 201.6
  Anisotropy data 485,520,520: 206.3 and 203.4 and 204.6

Reference: PMC10564737, “Structure-based design of a phosphotyrosine-masked covalent ligand targeting the E3 ligase SOCS2” (Nature Communications, 2023)
